PubChem BioAssay AID652243 – Drosophila RNAi Screening Center | 2013
Screen: 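Fly regulators of androgen-dependent reporter output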 (primary screen). System: Drosophila S2R+ cells. Reagents: long dsRNA against Drosophila genes. Duration: 72 h (48 h, then 24 h hormone). Challenge: synthetic androgen R1881 at 10 nM for 24 h. Measured: 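Firefly light from an androgen-responsive reporter and Renilla control light per well, raw and unnormalised, for each of two replicates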. Reading the numbers: firefly reporter light: higher = more light from androgen-responsive reporter; Renilla control light: higher = more constitutive control signal (cell number, transfection). Rule for the call: 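Hit when the log firefly-to-Renilla ratio dropped or increased by a fixed fold versus the mean of GFP or LacZ controls across duplicate plates; lowering cut given as 1.5 and as 3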. Meaning of the calls: active = hit: reporter lowered or raised; inactive = no hit.
In all, the deposit lists about 24,000 reagents; below is a random part of those with a known target gene and a result. In the full data, 246 (1%) were called active. 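Plates not normalised; calls are printed but the firefly/Renilla ratio behind them is not deposited; fold cut for lowering reported inconsistently.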 The raw values are shown without normalisation. Names joined by + are all predicted targets of the reagent. Not given: the amount of reagent.

CG18682 (retired record) [DRSC15373]
- firefly reporter light, replicate 1: 2.20e5
- firefly reporter light, replicate 2: 1.86e5
- Renilla control light, replicate 1: 2.25e6
- Renilla control light, replicate 2: 2.71e6
- Outcome: inactive

CG18682 (retired record) [DRSC15374]
- firefly reporter light, replicate 1: 1.54e5
- firefly reporter light, replicate 2: 1.31e5
- Renilla control light, replicate 1: 2.19e6
- Renilla control light, replicate 2: 2.07e6
- Outcome: inactive

PNPase (Polynucleotide phosphorylase) [DRSC14304]
- firefly reporter light, replicate 1: 1.18e5
- firefly reporter light, replicate 2: 1.05e5
- Renilla control light, replicate 1: 1.08e6
- Renilla control light, replicate 2: 7.85e5
- Outcome: inactive

CG14332 [DRSC14811]
- firefly reporter light, replicate 1: 3.21e5
- firefly reporter light, replicate 2: 3.00e5
- Renilla control light, replicate 1: 3.17e6
- Renilla control light, replicate 2: 2.77e6
- Outcome: inactive

CG34303 [DRSC38692]
- firefly reporter light, replicate 1: 1.07e6
- firefly reporter light, replicate 2: 9.10e5
- Renilla control light, replicate 1: 1.98e6
- Renilla control light, replicate 2: 2.31e6
- Outcome: inactive

bc10 [DRSC11326]
- firefly reporter light, replicate 1: 1.77e5
- firefly reporter light, replicate 2: 2.34e5
- Renilla control light, replicate 1: 1.79e6
- Renilla control light, replicate 2: 2.09e6
- Outcome: inactive

shep (alan shepard) [DRSC09765]
- firefly reporter light, replicate 1: 1.64e5
- firefly reporter light, replicate 2: 1.86e5
- Renilla control light, replicate 1: 1.84e6
- Renilla control light, replicate 2: 2.58e6
- Outcome: inactive

shep (alan shepard) [DRSC09771]
- firefly reporter light, replicate 1: 7.47e5
- firefly reporter light, replicate 2: 5.09e5
- Renilla control light, replicate 1: 1.23e6
- Renilla control light, replicate 2: 1.13e6
- Outcome: inactive

shep (alan shepard) [DRSC26847]
- firefly reporter light, replicate 1: 9.84e5
- firefly reporter light, replicate 2: 6.49e5
- Renilla control light, replicate 1: 1.01e6
- Renilla control light, replicate 2: 8.53e5
- Outcome: inactive

CG31288 [DRSC14667]
- firefly reporter light, replicate 1: 2.13e5
- firefly reporter light, replicate 2: 2.83e5
- Renilla control light, replicate 1: 2.43e6
- Renilla control light, replicate 2: 2.22e6
- Outcome: inactive

CG31288 [DRSC27373]
- firefly reporter light, replicate 1: 2.24e5
- firefly reporter light, replicate 2: 2.78e5
- Renilla control light, replicate 1: 6.70e5
- Renilla control light, replicate 2: 5.11e5
- Outcome: inactive

Cad88C (Cadherin 88C) [DRSC15486]
- firefly reporter light, replicate 1: 2.04e5
- firefly reporter light, replicate 2: 1.55e5
- Renilla control light, replicate 1: 2.55e6
- Renilla control light, replicate 2: 2.37e6
- Outcome: inactive

Cad88C (Cadherin 88C) [DRSC26126]
- firefly reporter light, replicate 1: 2.93e5
- firefly reporter light, replicate 2: 3.90e5
- Renilla control light, replicate 1: 4.99e5
- Renilla control light, replicate 2: 4.64e5
- Outcome: inactive

CG9119 [DRSC08620]
- firefly reporter light, replicate 1: 1.01e6
- firefly reporter light, replicate 2: 9.67e5
- Renilla control light, replicate 1: 1.30e6
- Renilla control light, replicate 2: 1.31e6
- Outcome: inactive

CG9119 [DRSC25290]
- firefly reporter light, replicate 1: 5.63e5
- firefly reporter light, replicate 2: 8.90e5
- Renilla control light, replicate 1: 7.90e5
- Renilla control light, replicate 2: 1.19e6
- Outcome: inactive

Unc-115b + p24-2 [DRSC16492]
- firefly reporter light, replicate 1: 31272
- firefly reporter light, replicate 2: 1.00e5
- Renilla control light, replicate 1: 3.87e5
- Renilla control light, replicate 2: 8.35e5
- Outcome: inactive

TotA (Turandot A) [DRSC13448]
- firefly reporter light, replicate 1: 1.35e5
- firefly reporter light, replicate 2: 1.67e5
- Renilla control light, replicate 1: 24313
- Renilla control light, replicate 2: 1.93e5
- Outcome: inactive

unc79 (uncoordinated 79) [DRSC15746]
- firefly reporter light, replicate 1: 95375
- firefly reporter light, replicate 2: 1.39e5
- Renilla control light, replicate 1: 8.05e5
- Renilla control light, replicate 2: 9.72e5
- Outcome: inactive

unc79 (uncoordinated 79) [DRSC25495]
- firefly reporter light, replicate 1: 5.62e5
- firefly reporter light, replicate 2: 7.81e5
- Renilla control light, replicate 1: 7.98e5
- Renilla control light, replicate 2: 1.07e6
- Outcome: inactive

Tab2 (TAK1-associated binding protein 2) [DRSC07481]
- firefly reporter light, replicate 1: 1.01e5
- firefly reporter light, replicate 2: 68461
- Renilla control light, replicate 1: 1.38e6
- Renilla control light, replicate 2: 1.21e6
- Outcome: inactive

CG9861 [DRSC04576]
- firefly reporter light, replicate 1: 8.61e5
- firefly reporter light, replicate 2: 7.52e5
- Renilla control light, replicate 1: 1.08e6
- Renilla control light, replicate 2: 1.04e6
- Outcome: inactive

CG9861 [DRSC28876]
- firefly reporter light, replicate 1: 4.10e5
- firefly reporter light, replicate 2: 4.45e5
- Renilla control light, replicate 1: 1.37e6
- Renilla control light, replicate 2: 1.41e6
- Outcome: inactive

2 entries from above, sorted by “firefly reporter light, replicate 1”, low to high.
Unc-115b + p24-2 [DRSC16492]
- firefly reporter light, replicate 1: 31272
- firefly reporter light, replicate 2: 1.00e5
- Renilla control light, replicate 1: 3.87e5
- Renilla control light, replicate 2: 8.35e5
- Outcome: inactive

CG9119 [DRSC25290]
- firefly reporter light, replicate 1: 5.63e5
- firefly reporter light, replicate 2: 8.90e5
- Renilla control light, replicate 1: 7.90e5
- Renilla control light, replicate 2: 1.19e6
- Outcome: inactive
